According to patent publication US20190144884A1 (University of Pennsylvania, published 2019):
Results are given in words; binding and its absence hold for the method and conditions named. Some results given as binding are weak or reduced against the parent protein; the word gives no strength.

Amino acid sequences for entries named in this document (tags omitted). A change or cut given only in a name is not applied to a line headed by its entry. Residues count along the entry.
UniProt P07724, residues 25-608: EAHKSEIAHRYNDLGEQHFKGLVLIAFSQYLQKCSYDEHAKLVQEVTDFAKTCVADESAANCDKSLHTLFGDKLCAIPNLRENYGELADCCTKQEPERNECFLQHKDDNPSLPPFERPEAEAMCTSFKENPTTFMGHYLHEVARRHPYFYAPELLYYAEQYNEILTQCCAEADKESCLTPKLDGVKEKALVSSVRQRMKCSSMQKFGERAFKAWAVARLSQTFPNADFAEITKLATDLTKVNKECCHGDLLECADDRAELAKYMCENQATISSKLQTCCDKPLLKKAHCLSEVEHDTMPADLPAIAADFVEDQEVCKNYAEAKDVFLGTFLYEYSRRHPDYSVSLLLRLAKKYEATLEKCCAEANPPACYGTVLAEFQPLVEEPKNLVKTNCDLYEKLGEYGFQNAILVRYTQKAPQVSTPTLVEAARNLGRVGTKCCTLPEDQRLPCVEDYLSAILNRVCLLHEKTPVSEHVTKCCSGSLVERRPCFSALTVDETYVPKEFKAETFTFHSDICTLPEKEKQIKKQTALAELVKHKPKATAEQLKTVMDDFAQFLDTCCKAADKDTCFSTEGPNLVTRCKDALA
UniProt P06276: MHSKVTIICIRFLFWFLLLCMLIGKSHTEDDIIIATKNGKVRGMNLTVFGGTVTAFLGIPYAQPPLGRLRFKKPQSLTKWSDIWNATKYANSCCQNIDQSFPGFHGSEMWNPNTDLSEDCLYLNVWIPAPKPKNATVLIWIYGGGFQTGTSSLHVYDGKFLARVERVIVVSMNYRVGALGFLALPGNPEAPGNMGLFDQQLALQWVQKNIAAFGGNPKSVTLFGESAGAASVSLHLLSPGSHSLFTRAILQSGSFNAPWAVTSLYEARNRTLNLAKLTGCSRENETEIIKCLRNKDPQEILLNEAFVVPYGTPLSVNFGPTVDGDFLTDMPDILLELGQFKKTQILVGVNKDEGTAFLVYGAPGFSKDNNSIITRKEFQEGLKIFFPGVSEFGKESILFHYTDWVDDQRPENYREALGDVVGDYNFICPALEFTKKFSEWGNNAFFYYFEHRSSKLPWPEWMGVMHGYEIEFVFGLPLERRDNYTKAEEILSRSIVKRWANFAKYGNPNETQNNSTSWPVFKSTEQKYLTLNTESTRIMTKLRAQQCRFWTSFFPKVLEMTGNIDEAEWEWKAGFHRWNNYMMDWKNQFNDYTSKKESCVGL

Target: albumin (in serum of RAG KO mouse) (UniProt P07724)
Assay: native gel, in-gel butyrylcholinesterase activity staining of mouse serum

Substance: human butyrylcholinesterase (hBChE) expressed from AAV8.UbC.hIL2.BChE C1.IRES.PRIMA1.SV40 vector (from UniProt P06276 27-602) (enzyme)
- binding: binds
